Source: PMC10444860
These are yes or no findings as the source states them, for the method shown. Some binding calls cover weakened binding; strength is not graded here. Sequences can lack the tags named with a protein.

Target: DLD C484A, Myc-DDK tagged (human) (UniProt P09622)
Assay: native gel or EMSA; Blue native PAGE (NativePAGE Novex Bis-Tris) of 30 ug whole cell lysates of transfected HEK293T cells (lysis buffer with 1% lauryl maltoside, pH 7.2), native immunoblot; monomer and dimer of DLD

binding: binds
B1: DLD C484A, Myc-DDK tagged (enzyme, UniProt P09622 36-509)
chain: ADQPIDADVTVIGSGPGGYVAAIKAAQLGFKTVCIEKNETLGGTCLNVGCIPSKALLNNSHYYHMAHGKDFASRGIEMSEVRLNLDKMMEQKSTAVKALTGGIAHLFKQNKVVHVNGYGKITGKNQVTATKADGGTQVIDTKNILIATGSEVTPFPGITIDEDTIVSSTGALSLKKVPEKMVVIGAGVIGVELGSVWQRLGADVTAVEFLGHVGGVGIDMEISKNFQRILQKQGFKFKLNTKVTGATKKSDGKIDVSIEAASGGKAEVITCDVLLVCIGRRPFTKNLGLEELGIELDPRGRIPVNTRFQTKIPNIYAIGDVVAGPMLAHKAEDEGIICVEGMAGGAVHIDYNCVPSVIYTHPEVAWVGKSEEQLKEEGIEYKVGKFPFAANSRAKTNADTDGMVKILGQKSTDRVLGAHILGPGAGEMVNEAALALEYGASCEDIARVAHAHPTLSEAFREANLAASFGKSINF
